US20250249119A1
These are yes or no findings as the source states them, for the method shown. Some entries that bind do so weakly or less than the wild type.

How the values were obtained:
[1] = molecular target: recombinant cynomolgus monkey (Macaca fascicularis) TfR1 (cynomolgus monkey (Macaca fascicularis)); assay: ELISA, conjugate against unconjugated Fab (FIGS. 11E, 11F)
[2] = molecular target: recombinant human TfR1 (human) (UniProt P02786); assay: as above

binding [1]: binds
binding [2]: binds
B1: humanized anti-TfR Fab 5H12 VH5 (C33Y)/Vκ4 conjugated to DMPK-targeting oligonucleotide ASO300 (Fab, V domains shown)
VH: QVQLVQSGAEVKKPGASVKVSCKASGYSFTDYYINWVRQAPGQGLEWMGWIYPGSGNTRYSERFKGRVTITRDTSASTAYMELSSLRSEDTAVYYCAREDYYPYHGMDYWGQGTLVTVSS
VL: DIVMTQSPDSLAVSLGERATINCRASESVDGYDNSFMHWYQQKPGQPPKLLIFRASNLESGVPDRFSGSGSGTDFTLTISSLQAEDVAVYYCQQSSEDPWTFGQGTKLEIKR
modifications: oligonucleotide ASO300 conjugated to the Fab; chain and residue not stated
